Source: patent US10815272B2, “CD31 peptides” (INSTITUT NATIONAL DE LA SANTE ET DE LA RECHERCHE MEDICALE …, priority 2012, dated 2020)
Not every detail of the peptide structures is certain; ends, links or a residue may be inferred. Non-standard residues stand in square brackets, D forms with d. Residues, ends and D or L forms follow the SMILES beside them.

Test system: EAE mouse model
Test: curative assay in the EAE mouse model (experimental autoimmune encephalitis)
Type: in vivo
Conditions: 2 mg/kg/day s.c., started at clinical score ≥1, 12 days follow-up, compared with prednisone

CC(C)C[C@@H](NC(=O)[C@@H](C)NC(=O)[C@H]1CCCN1C(=O)[C@@H](Cc1c[nH]c2ccccc12)NC(=O)[C@H](N)CCCCN)C(=O)N[C@H](Cc1ccccc1)C(=O)N[C@@H](C(=O)N[C@H](CCCNC(=N)N)C(=O)O)C(C)C [P8RI, H-kwpalfvr-OH] (H-[dK][dW][dP][dA][dL][dF][dV][dR]-OH)
reduction of ascending paralysis (clinical score): more rapid and effective than prednisone
